Some of these results come from one statement about several compounds together. Some ranges recur; such a range may be that of the whole group of compounds.
How the values were obtained:
[1] = Chemiluminescence measurement of anti-TSH antibody conjugate of acridinium ester 3a with cationic surfactants; conditions: for total light yield increase: approximate range over 80 days, no surfactant control = 1; for emission time (time for emission of >90% light): without surfactant 57.5 seconds
Protocol: (§1) To study the impact of degradable cationic surfactants on acridinium ester chemiluminescence, two exemplary cationic surfactants containing cleavable linkages (FIG. 2A) were selected. The synthetic schemes for the two surfactants are illustrated in FIGS. 3-4 and described in Examples 1 and 2 above. Both surfactants were dissolved in Reagent 1 (0.1 M nitric acid containing 0.5% hydrogen peroxide) at five times their reported CMCs in water. CTAC dissolved in Reagent 2 (0.25 M NaOH) was used as the control surfactant. The two carbonate and amide cationic surfactants (FIG. 2A) were dissolved in Reagent 1 to preserve stability, especially during long term storage (Stjerndahl and Holmberg, J. Colloid and Interface Sci., 2005, 291, 570-576). Three acridinium esters (FIG. 2B, compounds 3a, 3b and 3c) were used to make protein conjugates of an anti-TSH antibody (TS=thyroid stimulating hormone) as described in the literature (Natrajan et al, Org. Biomol. Chem., 2011, 9, 5092-5103; Natrajan et al, Org. Biomol. Chem., 2012, 10, 3432-3447). The conjugates contained approximately 5 labels. The conjugates were stored at 4° C. in buffer and chemiluminescence from each conjugate was measured in the absence of surfactant and in the presence of CTAC as well as cationic surfactants 1 and 2 (Tables 1-3, FIGS. 5-7). The ability of each surfactant to (a) increase total light output and (b) accelerate emission kinetics was evaluated over a period of 80 days.
(§2) Chemiluminescence of anti-TSH antibody conjugates of acridinium esters 3a, 3b and 3c (FIG. 2B) was measured on an Autolumat LB953 Plus luininometer from Behold Technologies. The conjugates, ˜2 mg/mL containing approximately five labels, were serially diluted 10^5-fold for chemiluminescence measurements in an aqueous buffer of 10 mM disodium hydrogen phosphate, 0.15 M NaCl and 8 mM sodium azide and 0.015 mM bovine serum albumin (BSA), pH 8.0. A 0.010 mL volume of each diluted acridinium ester sample was dispensed into the bottom of a cuvette. Cuvettes were placed into the primed LB953 and the chemiluminescence reaction was initiated with the sequential addition of 0.3 mL of Reagent 1, a solution of 0.5% hydrogen peroxide in 0.1 M nitric acid followed by the addition of 0.3 mL of Reagent 2, a solution of 0.25 M sodium hydroxide. For measurements in the presence of CTAC, the surfactant (7 mM) was included in Reagent 2. For measurements in the presence of the cationic amide surfactant 1 or the cationic carbonate surfactant 2, each surfactant was dissolved in Reagent 1 at 3.2 mM (surfactant 1) and 2.15 mM (surfactant 2). Each chemiluminescence flash curve was measured in 240 intervals of 0.5 second (120 seconds total time). […] The output from the luminometer instrument was expressed as R.L.U.s (Relative Light Units).

[2] = Chemiluminescence measurement of anti-TSH antibody conjugate of acridinium ester 3b with cationic surfactants; conditions: for total light yield increase: approximate range over 80 days, no surfactant control = 1; for emission time (time for emission of >90% light): without surfactant 49.5 seconds
Protocol: as §1, §2

[3] = Chemiluminescence measurement of anti-TSH antibody conjugate of acridinium ester 3c with cationic surfactants; conditions: for total light yield increase: approximate range over 80 days, no surfactant control = 1; for emission time (time for emission of >90% light): without surfactant 62.5 seconds
Protocol: as §1, §2

For `CCCCCCCCCCCCCCCC(=O)NCC[N+](C)(C)C` [surfactant 1], the “total light yield increase” value [1] was 2.5-4 fold, the “emission time (time for emission of >90% light)” value [1] was < 3 s and the “total light yield increase” value [2] was 3-5 fold. For the same compound, the “emission time (time for emission of >90% light)” value [2] was < 3 s, the “total light yield increase” value [3] was 3-4.5 fold and the “emission time (time for emission of >90% light)” value [3] was < 3 s.

With `CCCCCCCCCCCCOC(=O)OCCCC[N+](C)(C)C` [surfactant 2] the “total light yield increase” value [1] was 2.5-4 fold, the “emission time (time for emission of >90% light)” value [1] was < 3 s and the “total light yield increase” value [2] was 3-5 fold. The “emission time (time for emission of >90% light)” value [2] was < 3 s, the “total light yield increase” value [3] was 3-4.5 fold and the “emission time (time for emission of >90% light)” value [3] was < 3 s.

— patent publication US10859504B2, “Degradable cationic surfactants and use thereof in enhancing chemiluminescence” (Siemens Healthcare Diagnostics Inc., priority 2013, dated 2020)
